Data taken from PubChem BioAssay AID2685 (National Center for Advancing Translational Sciences (NCATS), 2010).
The other results are listed elsewhere or left out. Shown are side measurements of this screen, not its main read-out; they come without a call. Most of these compounds were active or inconclusive in the main read-out, so they are no random draw. Potencies come from curve fits of mixed quality, noted in brackets.

Test: qHTS Assay for Lipid Storage Modulators in Drosophila S3 Cells;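 on cell number change: cells counted by Cell Tracker Red CMTPX staining in the red channel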
Details: BODIPY lipid droplet fluorescence, 18-24 h; for cell number change: measured here: cell count max response, cells fed with added oleic acid
Procedure, shortened: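 Laser-scanning cytometry quantifies lipid droplet accumulation (500–530 nm total intensity; droplet/cell object ratio) in oleic acid-fed (400 uM added) Drosophila S3 cells treated with a concentration series. 20 uM Triacsin C defined 100% inhibition.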

[1] = measured here: lipid fluorescence (Fed channel) AC50, cells fed with added oleic acid
[2] = measured here: cell number channel AC50, cells fed with added oleic acid

Structure (SMILES)	cell number change [%]	AC50 [1]	AC50 [2]
O=C(NCCCN1CCCC1=O)c1cccc(C(F)(F)F)c1	-10.9	13 µM [falling, partial curve]	
C=CCNC(=O)NC(=O)c1csc([N+](=O)[O-])c1		6.51 µM [falling, single point]	6.51 µM [falling, single point]
COc1cc(SC)ccc1C(=O)Nc1ccc2c(c1)CCC2	-17.1	0.82 µM [falling, full curve]	
CN(C)c1nc(NCc2ccccc2)nc(N/N=C/c2ccc3c(c2)OCO3)n1	20.6	0.651 µM [rising, full curve]	
COc1ccc(OC)c(C(C)NC=O)c1 (configuration not stated)	-167		29.1 µM [falling, single point]
CC(C)(C)c1ccc(/C=C/C(=O)Nc2ncccn2)cc1	-19	6.51 µM [falling, partial curve]	
COc1ccccc1N(C)S(=O)(=O)c1ccc(C(=O)N2CCCC(C(F)(F)F)C2)cc1 (configuration not stated)			2.31 µM [rising, partial curve]
O=C(NNC(=S)NCCCN1CCOCC1)c1ccncc1	-37.3		14.1 µM [falling, partial curve]
CCc1cccc(OCCCCN(CC)CC)c1	-26		
COc1ccc(NC(=O)C2CCN(C(=O)NCc3ccccc3)CC2)cc1	11.9	8.2 µM [rising, partial curve]	
CCCOC1CCCN(C(=O)c2cc(COc3c(F)cccc3F)on2)C1 (configuration not stated)	-22.8	32.6 µM [falling, single point]	
Cc1cc2c(SCC(=O)NC3CCCCC3)ncnc2s1	3.04		
COc1cccc(-c2cn3nc(C)c(C)nc3n2)c1	40.4		3.26 µM [rising, full curve, poor fit]
COCCNC(=O)c1c(CSc2ccc(F)cc2)noc1C(=O)NCc1ccccc1	24.2		
COc1ccc(Oc2nc(C)cc(C)c2S(C)(=O)=O)cc1	16.1		
Cc1ccc(S(=O)(=O)c2nc(-c3ccccc3)oc2SCC(=O)NCC2CCCO2)cc1 (configuration not stated)	-3.97	18.4 µM [falling, partial curve, poor fit]	
O=C(Nc1ccc(Br)cc1F)C1CCCN(S(=O)(=O)c2cnc[nH]2)C1 (configuration not stated)	6.91		
O=C(Cn1c(=O)oc2ccccc21)Nc1ccc(Br)cc1	144		29.1 µM [rising, single point]
Cc1cc[n+](C(C)C(=O)c2ccc(-c3ccccc3)cc2)cc1 (configuration not stated)	-2.26	32.6 µM [falling, single point]	
O=C(CN1CCCCCC1)Nc1cccc(Br)c1	-12.4		
Cn1ccnc1SCC(=O)c1ccc(Br)cc1	16.6		
CCOC(=O)C1CCN(S(=O)(=O)c2cccc(-c3cn4cc(Cl)ccc4n3)c2)CC1	1.53		
Cc1ccc(NC2=C(Cl)C(=O)N(C3CCCCC3)C2=O)cc1	2.4	6.51 µM [rising, partial curve, poor fit]	6.51 µM [rising, partial curve, poor fit]

Record cards (already shown):
`Cc1cc2c(SCC(=O)NC3CCCCC3)ncnc2s1` is entered as cell number change [%]: 3.04
`CCOC(=O)C1CCN(S(=O)(=O)c2cccc(-c3cn4cc(Cl)ccc4n3)c2)CC1` is entered as cell number change [%]: 1.53

Later entries

Structure (SMILES)	cell number change [%]	AC50 [1]	AC50 [2]
COc1cc(C(=O)Nc2ccc([N+](=O)[O-])cn2)cc(OC)c1OC	13.4		
CCOc1ccc(N(CC(=O)Nc2nccs2)S(=O)(=O)c2c(C)noc2C)cc1	9.28		
Cc1cc(NC(=O)CSc2nc3c(cc2C#N)CCCCC3)no1	-11.2		
COc1ccc(NC(=O)CN(c2ccc(Cl)cc2)S(C)(=O)=O)cc1OC	-8.07		
CCOCCCn1c(=S)[nH]c2cc(C(=O)NC3CCCC(C)C3C)ccc2c1=O (configuration not stated)	2.67	6.51 µM [falling, single point]	
Cc1ccc(NC2c3ncccc3C(=O)N2c2ccccc2C)cc1C (configuration not stated)	-12.3		
CC1=NN(C(=O)c2ccc(C)o2)C(O)(c2ccccc2)C1 (configuration not stated)	-5.94	2.06 µM [rising, partial curve, poor fit]	0.731 µM [rising, partial curve, poor fit]
c1ccc(-c2csc3nnc(SCc4ccc5c(c4)OCO5)n23)cc1		0.164 µM [rising, full curve]	0.116 µM [rising, full curve]
O=C(CCC(=O)c1cccs1)NNC(=O)c1ccccc1O	34.3		32.6 µM [rising, single point]
CN1C(=O)/C(=C/c2ccccc2OCc2ccccc2F)NC1=S	-22.6	1.16 µM [falling, full curve, poor fit]	
CCOC(=O)C1CCCN(C(=O)c2ccc(NC(=O)CC3SC(N4CCCC4)=NC3=O)cc2)C1 (configuration not stated)	-18.1		
Cc1ccc(S(=O)(=O)N2CCN(c3ncnc4sccc34)CC2)cc1C	-53.4		8.2 µM [falling, partial curve]
Cn1c(=O)n(C)c2cc(NS(=O)(=O)c3ccc(F)cc3)ccc21	-31.5		
COc1ccc(C2CC(=O)C3=C(C2)NC(C)=C(C#N)C3c2ccc(N(C)C)cc2)cc1 (configuration not stated)	-71.1		4.11 µM [falling, full curve]
COc1ccc(C(=O)Nc2ccc(-c3ccc(C)o3)cc2)cc1S(=O)(=O)N1CCOCC1	-13.6		
CCO/C(C)=N/n1c2nc3ccccc3nc2c2c(=O)n(Cc3ccccc3Cl)c(C)nc21	2.24	0.13 µM [rising, full curve, poor fit]	
COc1ccc(CCC(=O)OCC(=O)Nc2ccccc2OC(F)F)cc1OC			0.146 µM [falling, full curve, poor fit]
COc1cccc(-n2c(SCC#N)nnc2-c2cnccn2)c1	-15		
CCOc1ccc(NC(=S)N2CCN(S(=O)(=O)c3ccc(OC)cc3)CC2)cc1	13.8	14.6 µM [rising, partial curve, poor fit]	
N=C1C(c2ccccc2)=C(O)CN1c1cccc(S(=O)(=O)NCc2ccco2)c1	-51.2	3.66 µM [falling, full curve]	3.26 µM [falling, full curve]
O=C(Nc1ccc(NC(=O)c2ccco2)cc1)c1ccc2c(c1)OCCO2		29.1 µM [falling, partial curve, poor fit]	
Cc1nn(-c2ccccc2)c(N2CCCC2)c1/C=N/n1cnc2scc(-c3ccccc3)c2c1=O	30.4	0.651 µM [rising, full curve, poor fit]	3.66 µM [rising, partial curve]
O=C(NC1=NCCS1)c1cccs1	2.95	0.731 µM [falling, single point]	

Structure (SMILES)	cell number change [%]	AC50 [1]	AC50 [2]
CCC(C)(C)n1nnnc1C(c1ccc(F)cc1)N1CCN(C(=O)c2ccco2)CC1 (configuration not stated)	14.2		
Cc1nn(Cc2ccccc2)c(C)c1NC(=O)CSc1nc(-c2ccccc2)nc2c1cnn2-c1ccccc1	-13.4	6.51 µM [rising, partial curve, poor fit]	
COc1ccc(S(=O)(=O)N2CCCCCC2)cc1C(=O)NCc1ccc(C)cc1	29.3	18.4 µM [falling, partial curve, poor fit]	
O=C(O)c1ccc(Cl)c(NCc2ccncc2)c1	-0.647	6.51 µM [rising, single point]	
O=C(NN1C(=O)c2ccccc2C1=O)c1ccc2c(c1)C(=O)N(CC1CCCO1)C2=O (configuration not stated)	-9.2	6.51 µM [falling, single point]	
COc1ccc(-c2nc(N)n(S(=O)(=O)c3ccc(C)cc3)n2)cc1	0.851		
COc1ccc2cc(C(=O)Nc3ccc(F)cc3)sc(=O)c2c1OC		0.259 µM [falling, full curve]	
CC1CCC(CN2C(Nc3ccccc3)=NC[C@@H]2C)CC1 (some centres not stated)	5.69		
COc1cc(NC(=O)c2ccc(CNc3c(N4CCOCC4)c(=O)c3=O)cc2)cc(OC)c1	7.65	29.1 µM [falling, single point]	
CCN(CC(=O)Nc1ccc(NC(C)=O)cc1)C(=O)C1CCCN(C(=O)c2ccc(Cl)cc2)C1 (configuration not stated)	10.4	4.11 µM [falling, single point]	
CCOC(=O)c1cnc(-c2ccccc2)nc1Oc1ccc(Cl)cc1		0.651 µM [rising, single point]	
CCN(CC)c1ccc(/C=N/NC(=O)C(O)(c2ccccc2)c2ccccc2)o1		0.164 µM [falling, full curve, poor fit]	
O=C(c1ccccc1F)c1cc2c(cc1[N+](=O)[O-])OCCO2	-46		32.6 µM [falling, single point]
COc1ccc(CCCNC(=O)C2CCC(=O)N(CC3CCCCC3)C2)cc1 (configuration not stated)	10.1	0.0517 µM [rising, full curve, poor fit]	
COCCCn1c(SCC(=O)Nc2cccc(C)n2)nnc1-c1ccco1			7.31 µM [falling, single point]
CCn1c(C)nc2cc(C(=O)N/N=C(\C)c3ccc(OC)cc3O)ccc21	-24.9	1.46 µM [rising, full curve]	
O=C(O)CC1SC(=Nc2cccc(O)c2)NC1=O (configuration not stated)	-13.3	3.66 µM [falling, single point]	
Cc1ccc(S(=O)(=O)NC(=O)Nc2cc(C)ccc2F)cc1	1.59		
COc1ccc(C)cc1S(=O)(=O)NCc1cccs1	-10	0.082 µM [rising, single point]	
CCOC(=O)N/N=C1\CCS(=O)(=O)c2ccc(Cl)cc21	19.7	3.66 µM [falling, single point]	2.91 µM [falling, single point]
CC1CN(CC(=O)NCc2ccc(F)cc2)CC(C)O1 (configuration not stated)	-5.71	6.51 µM [falling, partial curve]	
Cc1ccc(-c2noc(=O)n2CC(=O)Nc2ccc(S(=O)(=O)NC3CC3)cc2)cc1	1.5		
